Results as given in paper PMC11998537.
These are yes or no findings as the source states them, for the method shown. Binding seen in cells or lysates may run through a third protein. Some results given as binding are weak or reduced against the parent protein; the word gives no strength. Where a sequence is shown, tags or fusion partners need not be part of it.

By UniProt entry, the sequences of proteins in these tests, tags left out. Where a name states a change or a piece, a line headed by the entry shows the natural chain unless it says otherwise. Residues count along the entry.
UniProt P03431: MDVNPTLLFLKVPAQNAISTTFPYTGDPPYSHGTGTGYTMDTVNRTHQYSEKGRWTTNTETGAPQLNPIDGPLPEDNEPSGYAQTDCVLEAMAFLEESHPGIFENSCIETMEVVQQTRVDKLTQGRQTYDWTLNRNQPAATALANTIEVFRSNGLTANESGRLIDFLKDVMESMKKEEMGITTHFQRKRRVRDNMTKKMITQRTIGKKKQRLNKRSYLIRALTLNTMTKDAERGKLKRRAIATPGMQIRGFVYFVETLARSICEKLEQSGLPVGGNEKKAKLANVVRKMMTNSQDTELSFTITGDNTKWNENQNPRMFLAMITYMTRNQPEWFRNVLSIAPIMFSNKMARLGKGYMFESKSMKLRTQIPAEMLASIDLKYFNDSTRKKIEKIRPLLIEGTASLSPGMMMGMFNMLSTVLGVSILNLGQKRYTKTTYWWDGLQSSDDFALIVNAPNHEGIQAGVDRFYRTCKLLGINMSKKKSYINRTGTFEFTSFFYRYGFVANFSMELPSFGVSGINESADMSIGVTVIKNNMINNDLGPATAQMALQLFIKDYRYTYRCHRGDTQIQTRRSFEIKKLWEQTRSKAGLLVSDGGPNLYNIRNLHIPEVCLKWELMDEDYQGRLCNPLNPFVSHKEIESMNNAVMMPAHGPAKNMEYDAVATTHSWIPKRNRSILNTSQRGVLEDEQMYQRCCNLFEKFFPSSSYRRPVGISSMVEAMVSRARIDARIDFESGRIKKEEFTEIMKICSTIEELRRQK
Flag-PB1 (1-265) (influenza A/Puerto Rico/8/1934 (PR8, H1N1)): residues 1-265 of P03431

Key:
[1] = molecular target: Flag-PB1 (1-265) (influenza A/Puerto Rico/8/1934 (PR8, H1N1)) (UniProt P03431); experiment: co-IP
[2] = molecular target: Flag-tagged PB1 (polymerase basic protein 1) of influenza A/Puerto Rico/8/1934 (PR8, H1N1) (influenza A/Puerto Rico/8/1934 (PR8, H1N1)) (UniProt P03431); experiment: co-IP

B1: Myc-tagged DCAF7 (DDB1 and CUL4-associated factor 7) (protein, UniProt P61962 1-342)
chain: MSLHGKRKEIYKYEAPWTVYAMNWSVRPDKRFRLALGSFVEEYNNKVQLVGLDEESSEFICRNTFDHPYPTTKLMWIPDTKGVYPDLLATSGDYLRVWRVGETETRLECLLNNNKNSDFCAPLTSFDWNEVDPYLLGTSSIDTTCTIWGLETGQVLGRVNLVSGHVKTQLIAHDKEVYDIAFSRAGGGRDMFASVGADGSVRMFDLRHLEHSTIIYEDPQHHPLLRLCWNKQDPNYLATMAMDGMEVVILDVRVPCTPVARLNNHRACVNGIAWAPHSSCHICTAADDHQALIWDIQQMPRAIEDPILAYTAEGEINNVQWASTQPDWIAICYNNCLEILRV
For B1, the binding [1] was “binds” and the binding [2] was “binds”.
